For the test, the target named is Myc-tagged CRMP1B-wildtype (human) (UniProt Q14194). The test can be described thus: co-IP; HEK293T cells coexpressing Myc-tagged CRMP1B-wildtype and a V5-tagged CRMP1B; lysed in IP150 buffer (20 mM Tris-HCl pH 7.4, 150 mM NaCl, 5 mM EDTA, 1% Triton X-100); anti-c-Myc (9E10) agarose overnight at 4°C; anti-V5 and anti-Myc immunoblots.

The chains behind the UniProt entries cited, without tags or fusion partners. Where a name states a change or a piece, a line headed by the entry shows the natural chain unless it says otherwise.
UniProt Q14194: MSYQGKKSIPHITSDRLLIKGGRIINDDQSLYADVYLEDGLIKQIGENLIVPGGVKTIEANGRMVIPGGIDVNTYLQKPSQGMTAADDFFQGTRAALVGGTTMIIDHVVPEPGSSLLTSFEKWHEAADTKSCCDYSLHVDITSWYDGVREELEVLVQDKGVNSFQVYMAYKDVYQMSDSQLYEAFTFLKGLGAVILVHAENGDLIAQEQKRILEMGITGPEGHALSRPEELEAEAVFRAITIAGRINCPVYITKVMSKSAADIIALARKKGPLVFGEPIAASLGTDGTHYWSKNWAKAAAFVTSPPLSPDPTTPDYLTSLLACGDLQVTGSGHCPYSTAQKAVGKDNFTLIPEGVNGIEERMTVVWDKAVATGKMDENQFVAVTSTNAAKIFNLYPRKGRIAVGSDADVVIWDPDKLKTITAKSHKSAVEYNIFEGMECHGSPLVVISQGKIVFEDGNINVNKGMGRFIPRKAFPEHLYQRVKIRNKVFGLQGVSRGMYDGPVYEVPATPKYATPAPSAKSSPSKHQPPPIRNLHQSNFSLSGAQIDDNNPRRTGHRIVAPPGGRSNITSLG

These are yes or no findings as the source states them, for the method shown. In cells and extracts the contact can be indirect. Some binding calls cover weakened binding; strength is not graded here.

Consider “V5-tagged CRMP1B-P475L (from UniProt Q14194-1 1-572)”, for which the binding entry was “binds”.

In the case of “V5-tagged CRMP1B-T313M (from UniProt Q14194-1 1-572)”, the binding entry was “binds”.

As to “V5-tagged CRMP1B-wildtype (from UniProt Q14194-1 1-572)”, the binding result was “binds”.

These data come from PMC9803352.
